Among the data in PubChem BioAssay AID330 (DTP/NCI, 2004) are T/C and survivor count values, retold here.

The assay relates to P388 leukemia ip, CD2F1 mice, survival T/C. As to the kind of experiment: NCI In Vivo Anticancer Drug Screen. Data for tumor model P388 Leukemia (intraperitoneal) in CD2F1 (CDF1) mice. The settings on record: T/C endpoint: median survival time, higher T/C = longer survival.
Where [1] appears, read: dose: 60.0 mg/kg/injection, schedule: Q01DX005 (ip), vehicle: saline with Tween-80.
Where [2] appears, read: dose: 120.0 mg/kg/injection, schedule: Q01DX005 (ip), vehicle: saline with Tween-80.
Setting [3] is: dose: 240.0 mg/kg/injection, schedule: Q01DX005 (ip), vehicle: saline with Tween-80.
The mark [4] stands for this setting: dose: 240.0 mg/kg/injection, schedule: Q01DX005 (ip), vehicle: saline.
Where [5] appears, read: dose: 200.0 mg/kg/injection, schedule: Q01DX005 (ip), vehicle: saline with Tween-80.
Setting [6] is: dose: 100.0 mg/kg/injection, schedule: Q01DX009 (ip), vehicle: saline.
Setting [7] is: dose: 200.0 mg/kg/injection, schedule: Q01DX009 (ip), vehicle: saline.
[8] abbreviates: dose: 400.0 mg/kg/injection, schedule: Q01DX009 (ip), vehicle: saline with Tween-80.
Setting [9] is: dose: 50.0 mg/kg/injection, schedule: Q01DX005 (ip), vehicle: Klucel (hydroxypropylcellulose) (HPC).
[10] abbreviates: dose: 50.0 mg/kg/injection, schedule: Q01DX009 (ip), vehicle: saline with Tween-80.
Setting [11] is: dose: 100.0 mg/kg/injection, schedule: Q01DX009 (ip), vehicle: saline with Tween-80.
Setting [12] is: dose: 200.0 mg/kg/injection, schedule: Q01DX009 (ip), vehicle: saline with Tween-80.
Where [13] appears, read: dose: 60.0 mg/kg/injection, schedule: Q01DX005 (ip), vehicle: saline.

The structures appear in SMILES notation. The list is a part of this screen's results and no random one: it is rich in T/C values a quarter to a half above the control, in often repeated tests (any T/C) and in doses without a T/C. Other doses and runs of a compound stand elsewhere. T/C gives the treated animals as a percentage of the vehicle group. Some doses have a count of surviving animals in place of a T/C: the source holds a T/C of zero for them, seemingly a mark for toxic or unscored doses. Some survivor counts are full or nearly so, which does not show that the dose was tolerated: the source hardly ever lists a survival T/C far under the control, and the zero likely stands for such cases as well. Survivors were counted at the toxicity check, usually on the fifth day, unless a day is given; later deaths do not show. Schedules are NCI's codes, read here as Q, the interval in days (D) or hours (H), X, the number of doses. Some doses were run more than once; the values are given in rising order. Some structures stand for samples that the source files as different forms (salt, stereo form or complex); doses refer to the form tested. For survival time, the PubChem record calls one and a half times the control and up active, and a quarter to a half above the control has no call in these data; cut-offs in other NCI protocols can differ.

Consider `CCCCc1c(C#N)c(=O)n2c(N)c(C(=O)OCC)cnc2c1SC`, for which the T/C is, setting by setting: (dose: 15.0 mg/kg/injection, schedule: Q01DX005 (ip), vehicle: saline with Tween-80) 132 % of control; (dose: 22.5 mg/kg/injection, schedule: Q01DX005 (ip), vehicle: saline with Tween-80) 129 % of control. Further, the survivor count reads like this: under setting [1], 2 of 6; under setting [2], 0 of 6; under setting [3], 0 of 6 and 3 of 6.
As to `CC(C)=CCC/C(C)=C/CC1=C(O)c2ccccc2C(=O)C1=O`, the survivor count (dose: 3.12 mg/kg/injection, schedule: Q01DX009 (ip), vehicle: saline) is reported as 6 of 6; the survivor count (dose: 6.25 mg/kg/injection, schedule: Q01DX009 (ip), vehicle: saline) is 6 of 6; the survivor count (dose: 25.0 mg/kg/injection, schedule: Q01DX009 (ip), vehicle: saline) is 6 of 6.
On to `CC(C)CCN=C(N)N=C(N)N`, for which the survivor count under setting [4] is given as 0 of 6.
For the compound `CCCCCCCCCCCC1=c2o[nH]c2=C(c2ccccn2)C(=O)C1=O`, the survivor count under setting [5] was 6 of 6.
Consider `C=C1C(=O)OC2C=CCCC12` (stereo unspecified), for which the survivor count (dose: 200.0 mg/kg/injection, schedule: Q01DX009 (ip), vehicle: water) is recorded as 5 of 6.
For the compound `CCC(=O)c1c(C)oc2ccc(O)cc12`, the survivor count (dose: 100.0 mg/kg/injection, schedule: Q04DX002 (ip), vehicle: Klucel (hydroxypropylcellulose) (HPC)) was 6 of 6.
On to `CN=C(N)N/N=C(C)/C(C)=C/c1ccccc1`, for which the survivor count (dose: 50.0 mg/kg/injection, schedule: Q04DX002 (ip), vehicle: saline with Tween-80) is recorded as 3 of 6 and the survivor count (dose: 100.0 mg/kg/injection, schedule: Q04DX002 (ip), vehicle: saline with Tween-80) is on record as 0 of 6.
Take `O=C1C=C(C/C=C/c2ccccc2)C(C/C=C/c2ccccc2)C=C1O` (stereo unspecified): the survivor count (dose: 5.0 mg/kg/injection, schedule: Q01DX009 (ip), vehicle: saline with Tween-80) was 6 of 6.
With `CC(C)=CCCc1ccc2c(c1)C(=O)c1cc3c(cc1C2=O)OCO3`, the survivor count by setting is: (dose: 30.0 mg/kg/injection, schedule: Q01DX005 (ip), vehicle: saline with Tween-80) 6 of 6; under setting [1], 6 of 6; under setting [2], 6 of 6; under setting [3], 6 of 6.
Turning to `CC1(C)CC(=O)c2c(ncc3cc4c(cc23)OCO4)C1`, the T/C (dose: 400.0 mg/kg/injection, schedule: Q04DX002 (ip), vehicle: saline with Tween-80) is 139 % of control.
Turning to `CC(O[Si](C)(C)C(C)(C)C)C(=O)Sc1ccccn1` (stereo unspecified), the survivor count under setting [3] was 3 of 6.
`O=S(=O)(c1cnccc1N1CCN(CCCl)CC1)N1CCCCC1`: the T/C (dose: 50.0 mg/kg/injection, schedule: Q01DX009 (ip), vehicle: saline) is 97, 105, 111, 120 % of control. Further, the survivor count by setting is: under setting [6], 5 of 6; under setting [7], 0 of 6.
Consider `CC(=O)OCC1OC(n2cc(F)c(=O)[nH]c2=O)CC1OC(C)=O` (stereo unspecified), for which, under setting [8], the survivor count is listed as 6 of 6.
As for `CC(C)[N+](C)(C)CC(O)COc1cccc2ccccc12` (stereo unspecified), the survivor count is, setting by setting: under setting [6], 2 of 6; under setting [7], 0 of 6.
Regarding `CC(=O)[O-].O=C(N/N=C/c1ccccc1[O-])c1ccccc1.[Zn+2]`, the survivor count under setting [3] is given as 4 of 6.
`[Br][Sn]([CH2][Sn]([Br])([c]1ccccc1)[c]1ccccc1)([c]1ccccc1)[c]1ccccc1`: the T/C reads like this: (dose: 12.5 mg/kg/injection, schedule: Q01DX005 (ip), vehicle: Klucel (hydroxypropylcellulose) (HPC)) 127 % of control; (dose: 25.0 mg/kg/injection, schedule: Q01DX005 (ip), vehicle: Klucel (hydroxypropylcellulose) (HPC)) 127 % of control; under setting [9], 127 % of control. Further, the survivor count is, setting by setting: under setting [9], 3 of 6; (dose: 100.0 mg/kg/injection, schedule: Q01DX005 (ip), vehicle: Klucel (hydroxypropylcellulose) (HPC)) 5 of 6; (dose: 200.0 mg/kg/injection, schedule: Q01DX005 (ip), vehicle: Klucel (hydroxypropylcellulose) (HPC)) 0 of 6.
In the case of `CCCCn1cnc2c(cnn2C)c1=N`, under “dose: 400.0 mg/kg/injection, schedule: Q04DX002 (ip), vehicle: saline”, the survivor count was 0 of 6.
Regarding `CN(C)c1ccc(/C=C/c2nccc3ccccc23)cc1`, the survivor count under setting [10] is recorded as 5 of 6, the survivor count under setting [11] is 0 of 6, the survivor count under setting [12] was 0 of 6 and the survivor count under setting [8] is given as 0 of 6.
As for `c1ccc(OCCC[P+](c2ccccc2)(c2ccccc2)c2ccccc2)cc1`, the survivor count is reported as 3 of 6 (dose: 3.13 mg/kg/injection, schedule: Q01DX009 (ip), vehicle: saline sonified); 4 of 6 (dose: 9.3 mg/kg/injection, schedule: Q01DX009 (ip), vehicle: saline sonified); 3 of 6 (dose: 12.5 mg/kg/injection, schedule: Q01DX009 (ip), vehicle: saline sonified); 4 of 6 (dose: 25.0 mg/kg/injection, schedule: Q01DX009 (ip), vehicle: saline with Tween-80); 0 of 6 under setting [10]; 0 of 6 under setting [11]. For the same compound, the T/C (dose: 6.0 mg/kg/injection, schedule: Q01DX010 (ip), vehicle: carboxymethylcellulose (CMC)) is 130 % of control and the T/C (dose: 6.25 mg/kg/injection, schedule: Q01DX009 (ip), vehicle: saline sonified) is 125 % of control.
`CC1Nc2ccccc2NC1C` (stereo unspecified): the survivor count reads like this: (dose: 50.0 mg/kg/injection, schedule: Q01DX009 (ip), vehicle: saline + Tween-80 + alcohol) 5 of 6; (dose: 200.0 mg/kg/injection, schedule: Q01DX009 (ip), vehicle: saline + Tween-80 + alcohol) 3 of 6.
Regarding `CC(=O)OC1CC2CCCCC2CC1[N+](C)(C)C` (stereo unspecified), the survivor count was 0 of 6 under setting [11], 1 of 6 under setting [6], 0 of 6 under setting [12] and 0 of 6 under setting [7].
For `O=C(O)c1oc2ccccc2c1C=C(c1ccccc1)c1ccccc1`, the survivor count under setting [12] is given as 1 of 6.
Regarding `FC(F)(F)SN1COCN(SC(F)(F)F)C1`, the survivor count under setting [13] is recorded as 6 of 6 and the survivor count under setting [4] is 6 of 6.
For `C/C(=N\NC(=S)N1CCCCCC1)c1nccs1`, the survivor count was 2 of 6 (dose: 50.0 mg/kg/injection, schedule: Q01DX005 (ip), vehicle: saline with Tween-80); 3 of 6 (dose: 100.0 mg/kg/injection, schedule: Q01DX005 (ip), vehicle: saline with Tween-80); 0 of 6 under setting [5].
As to `Cc1ccc(NC(=O)CCCCC(C)NCC(O)c2ccc(O)c(O)c2)cc1` (stereo unspecified), the T/C by setting is: under setting [13], 128 % of control; (dose: 120.0 mg/kg/injection, schedule: Q01DX005 (ip), vehicle: saline) 127 % of control. Further, the survivor count reads like this: under setting [4], 0 of 6; (dose: 400.0 mg/kg/injection, schedule: Q01DX001 (ip), vehicle: saline) 0 of 6.
On to `COc1ccc2c(c1)C1CN(Cc3ccccc31)C2` (stereo unspecified), for which the survivor count by setting is: (dose: 200.0 mg/kg/injection, schedule: Q01DX001 (ip), vehicle: saline with Tween-80) 2 of 6; (dose: 400.0 mg/kg/injection, schedule: Q01DX001 (ip), vehicle: saline with Tween-80) 0 of 6.
Take `CC(=O)NC1C(OC(C)=O)OC(CS[As](C)C)C(OC(C)=O)C1OC(C)=O` (stereo unspecified): the T/C is 129 % of control under setting [10]; 135 and 136 % of control under setting [11]. In addition, the survivor count under setting [12] was 3 of 6 and 5 of 6.
For the compound `CC(=O)CC(C)=NCCN=C(C)CC(C)=O.C[CH2][Sn][CH2]C`, where the note is “dose: 100.0 mg/kg/injection, schedule: Q04DX003 (ip), vehicle: saline”, the T/C was 142 % of control. In addition, the survivor count was 0 of 6 (dose: 200.0 mg/kg/injection, schedule: Q04DX003 (ip), vehicle: saline) and 0 of 6 (dose: 400.0 mg/kg/injection, schedule: Q04DX003 (ip), vehicle: saline).
